Assay results taken from patent USRE30451E, “Novel process for producing antibiotics bleomycin” (priority 1969, dated 1980).

system: Ehrlich ascites carcinoma cells; settings: higher = less toxic and more effective

First: Cc1c(N)nc(C(CC(N)=O)NCC(N)C(N)=O)nc1C(=O)NC(C(=O)NC(C)C(O)C(C)C(=O)NC(C(=O)NCCc1nc(-c2nc(C(=O)NCC3CCNCC3)cs2)cs1)C(C)O)C(OC1OC(CO)C(O)C(O)C1OC1OC(CO)C(O)C(OC(N)=O)C1O)c1cnc[nH]1 (stereo not drawn) [Compound 41, 4-piperidylmethylamino-bleomycin]
Second: Cc1c(N)nc(C(CC(N)=O)NCC(N)C(N)=O)nc1C(=O)NC(C(=O)NC(C)C(O)C(C)C(=O)NC(C(=O)NCCc1nc(-c2nc(C(=O)NCCN(C)C)cs2)cs1)C(C)O)C(OC1OC(CO)C(O)C(O)C1OC1OC(CO)C(O)C(OC(N)=O)C1O)c1cnc[nH]1 (stereo not drawn) [Compound 9, 3-N,N-dimethylaminoethylamino-bleomycin]
The “LD50 /ED50 Index” value of the first is lower: 6 for the first, 8 for the second.

Compared with `Cc1c(N)nc(C(CC(N)=O)NCC(N)C(N)=O)nc1C(=O)NC(C(=O)NC(C)C(O)C(C)C(=O)NC(C(=O)NCCc1nc(-c2nc(C(=O)NCCCN3CCCC3)cs2)cs1)C(C)O)C(OC1OC(CO)C(O)C(O)C1OC1OC(CO)C(O)C(OC(N)=O)C1O)c1cnc[nH]1` (stereo not drawn) [Compound 24, 3-(pyrrolidino)-propylamino-bleomycin], `Cc1c(N)nc(C(CC(N)=O)NCC(N)C(N)=O)nc1C(=O)NC(C(=O)NC(C)C(O)C(C)C(=O)NC(C(=O)NCCc1nc(-c2nc(C(=O)NCCCNCCCN3CCOCC3)cs2)cs1)C(C)O)C(OC1OC(CO)C(O)C(O)C1OC1OC(CO)C(O)C(OC(N)=O)C1O)c1cnc[nH]1` (stereo not drawn) [Compound 31, 3-(3-morpholinopropyl)-aminopropylamino-bleomycin] is higher in “LD50 /ED50 Index” value: 19 for the first, 74 for the second.

First: Cc1c(N)nc(C(CC(N)=O)NCC(N)C(N)=O)nc1C(=O)NC(C(=O)NC(C)C(O)C(C)C(=O)NC(C(=O)NCCc1nc(-c2nc(C(=O)NCCc3cnc[nH]3)cs2)cs1)C(C)O)C(OC1OC(CO)C(O)C(O)C1OC1OC(CO)C(O)C(OC(N)=O)C1O)c1cnc[nH]1 (stereo not drawn) [Compound 42, 2-(4-imidazolyl)-ethylamino-bleomycin]
Second: Cc1c(N)nc(C(CC(N)=O)NCC(N)C(N)=O)nc1C(=O)NC(C(=O)NC(C)C(O)C(C)C(=O)NC(C(=O)NCCc1nc(-c2nc(C(=O)NCCC[N+](C)(C)C)cs2)cs1)C(C)O)C(OC1OC(CO)C(O)C(O)C1OC1OC(CO)C(O)C(OC(N)=O)C1O)c1cnc[nH]1 (stereo not drawn) [Compound 20, 3-(N,N,N-trimethyl)-aminopropylamino-bleomycin]
The “LD50 /ED50 Index” value of the first is lower: 6 for the first, 35 for the second.

Compared with `COCCC(C)NCCCNC(=O)c1csc(-c2csc(CCNC(=O)C(NC(=O)C(C)C(O)C(C)NC(=O)C(NC(=O)c3nc(C(CC(N)=O)NCC(N)C(N)=O)nc(N)c3C)C(OC3OC(CO)C(O)C(O)C3OC3OC(CO)C(O)C(OC(N)=O)C3O)c3cnc[nH]3)C(C)O)n2)n1` (stereo not drawn) [Compound 46, 3-(1-methyl-3-methoxypropyl)-aminopropylamino-bleomycin], `Cc1c(N)nc(C(CC(N)=O)NCC(N)C(N)=O)nc1C(=O)NC(C(=O)NC(C)C(O)C(C)C(=O)NC(C(=O)NCCc1nc(-c2nc(C(=O)NCCNCC(C)O)cs2)cs1)C(C)O)C(OC1OC(CO)C(O)C(O)C1OC1OC(CO)C(O)C(OC(N)=O)C1O)c1cnc[nH]1` (stereo not drawn) [Compound 13, 2-(2-hydroxypropyl)-aminoethylamino-bleomycin] is lower in “LD50 /ED50 Index” value: 24 for the first, 21 for the second.

`Cc1c(N)nc(C(CC(N)=O)NCC(N)C(N)=O)nc1C(=O)NC(C(=O)NC(C)C(O)C(C)C(=O)NC(C(=O)NCCc1nc(-c2nc(C(=O)NCCCNCCCN(C)C)cs2)cs1)C(C)O)C(OC1OC(CO)C(O)C(O)C1OC1OC(CO)C(O)C(OC(N)=O)C1O)c1cnc[nH]1` (stereo not drawn) [Compound 21] was tested, and the “LD50 /ED50 Index” value was 54.
